According to the supplement of paper PMC3334620:
Over roughly 33,000 sequences, “E-score (-0.5 to 0.5)” has its median near -8e-05; the highest 2% begin near 0.23. This is one part of the list.

molecular target: T1, Nrg2 (UniProt P38082); experiment: PBM E-score (8-mer binding enrichment) (E-score (-0.5 to 0.5)); higher = stronger / more preferred TF binding; settings: protein concentration: 100 nM; construct: GST-full length
T1 sequence: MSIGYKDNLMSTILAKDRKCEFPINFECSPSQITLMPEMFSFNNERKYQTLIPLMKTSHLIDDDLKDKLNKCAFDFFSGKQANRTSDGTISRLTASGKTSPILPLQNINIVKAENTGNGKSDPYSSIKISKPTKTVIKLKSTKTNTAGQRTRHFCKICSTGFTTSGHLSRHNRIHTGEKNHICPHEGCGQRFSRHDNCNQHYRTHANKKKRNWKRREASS
Procedure: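 Universal 'all 10-mer' protein binding microarrays (Agilent AMADID 015681) probed with GST-tagged S. cerevisiae TFs (full-length or DBD) made by in vitro transcription/translation (PURExpress), about 100-200 nM. Bound TF was detected with fluorescent anti-GST. Each ungapped 8-mer (which stands for itself and its reverse complement) is scored by the PBM enrichment score (E-score), a modified Wilcoxon-Mann-Whitney statistic from -0.5 to +0.5, computed with the Universal PBM Analysis Suite. Scale: above 0.35 generally sequence-specific binding.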

Point of comparison: CAAAGAAC, “PBM E-score” value -0.0376. Against it:
- CAAACTGA — higher, 0.0191
- AATGGTAA — higher, 0.194
- CGACCGCG — higher, 0.0511
- ACACACCT — higher, 0.0665
- GAAATAAA — higher, 0.0799
- CGCCTGAG — higher, -0.00578
- GCACGGCC — higher, 0.00561
- ATGGGACA — higher, 0.0686
- ACTTACTC — higher, 0.00115
- CATTAGAA — higher, 0.0605
- ACATTAGC — higher, -0.0364
- ACTATGAT — higher, 0.161
- CGCCCGTA — lower, -0.272
- CGCCTCGC — lower, -0.0994
- ATTTATAG — higher, 0.0419
- AATGATCG — lower, -0.156
- AGCTTGTC — higher, -0.0264
- ACCACGAG — higher, 0.0501
- CGGTATAA — higher, 0.0444
- CGGTTAAC — lower, -0.146
- ATATCCTG — higher, 0.0232
- AGGCCTAC — higher, 0.025
- CGGGTTTC — higher, 0.0653
- AAGCCGTG — lower, -0.106
- AACAGATT — lower, -0.0386
- GACCTCAC — lower, -0.0708
- CATCGTTA — higher, -0.0234
- ATTCATTA — higher, 0.134
- CATTGTGG — higher, -0.0117
- TCCCAGCA — lower, -0.082
- GAGGGCCA — lower, -0.0868
- AAAACGCC — higher, 0.0808
- GCTATCTA — lower, -0.0754
- ACCTCTTC — higher, 0.0127
- CTGTTGCA — higher, 0.181
- AGACTGGC — lower, -0.303
- AAAACACT — higher, 0.0319
- CTTCACTC — higher, 0.0762
- GGCTTACC — lower, -0.111
- CGTTAAGC — higher, 0.0258
- CCAAGTAC — lower, -0.0521
- AACGAGAT — higher, 0.0961
- AGGCCCTC — lower, -0.11
- GATTCTCA — higher, 0.183
- AGAACGTC — higher, 0.0815
- AGGGACGC — higher, 0.196
- ACCTGCGC — higher, 0.0898
- AGGCATCG — lower, -0.125
- GAGTCTGC — lower, -0.28
- AAGCTGTC — higher, 0.0317
- CCCTAACA — higher, 0.205
- GAACGTAA — higher, 0.196
- CAGCCTTC — lower, -0.149
- ACGTTGGA — lower, -0.138
- AGTCCCGC — higher, -0.0359
- GTACTGGA — lower, -0.0686
- CACCTATA — higher, -0.032
- AGACGTCG — lower, -0.151
- GACGGTAA — lower, -0.072
- ACAAAGGA — higher, 0.0252
- CAATTAGG — higher, -0.035
- CTCCAATA — higher, 0.0227
- ATCGGCCG — lower, -0.0992
- GAAGCGAA — higher, 0.0512
- AGTATCGG — higher, 0.0262
- ACATTCGT — higher, 0.0155
- ACAGACTG — higher, -0.0142
- TCACACGA — higher, 0.0745
- ATGATTAA — higher, 0.0628
- GCCCTGAC — higher, -0.00086
- TACACTGA — higher, 0.144
- GTAAAGAC — higher, 0.136
- CCCTCAAA — higher, 0.0328
- ATTAATTC — higher, 0.229
- AGGGATCA — higher, 0.184
- AGCAACCC — lower, -0.153
- GTGAGAAC — higher, -0.0135
- CACTGAGC — lower, -0.0828
- AACGGGGT — lower, -0.123
- AGAAAACA — lower, -0.0691
- ACAAATGC — higher, 0.084
- CGGAAACC — lower, -0.0945
- AAAGGACA — higher, 0.0964
- GTCATGGA — lower, -0.0624
- TAGCCGCA — lower, -0.0795
- CAGTCATA — lower, -0.0949
- TAGGGCAA — lower, -0.12
- ACCCGACC — lower, -0.0948
- GATCGACC — higher, 0.0374
- CCGCTTGA — higher, 0.0233
- GCGTGGCA — lower, -0.137
- AACAGGCG — lower, -0.166
- CAGTGTTA — higher, 0.147
- ATAATGTA — higher, 0.122
- CAGCTATG — lower, -0.123
- CATGGACA — higher, 0.00291
- CTACCCAA — lower, -0.0593
- GTCGCGCA — lower, -0.077
- CATGTCCA — higher, -0.0341
- CTACAAAG — higher, 0.116
- GATCAGAA — lower, -0.0998
- AGTGACAG — higher, 0.0722
- ATACCCCG — higher, 0.0515
- AAGGGCAA — higher, 0.153
- CATTCAGC — lower, -0.118
- ACTCTACG — higher, -0.0126
- GAAGGACA — higher, -0.00553
- ACAGCGTA — lower, -0.118
- CAATCAAC — higher, 0.157
- ACTTGTCG — higher, 0.059
- GGAAACCA — lower, -0.159
- GGCCTGAA — lower, -0.105
- AAATGTAA — higher, 0.0932
- AGTTTCTC — lower, -0.0424
- CCCGTAAG — lower, -0.157
- ACCATTTC — higher, 0.0439
- AACCCATC — higher, 0.0091
- ATGGACAT — higher, 0.0544
- CCTCTTTA — lower, -0.243
- GTAGTGTA — higher, 0.024
- CCTAGATC — higher, 0.0583
- GCTAAAGC — higher, -0.0297
- ATTATTGG — higher, -0.00344
- ACTCTGCA — higher, 0.108
- CGTACAGC — lower, -0.171
- CAGATCGG — higher, -0.00992
- GCGAGCCA — higher, 0.0283
- ATCACCTG — higher, 0.0306
- GGCAAGAC — lower, -0.065
- CGCCACCC — lower, -0.239
- TAAGTGAA — higher, 0.0844
- GACCCAAA — higher, 0.0147
- GTTATTCA — higher, 0.105
- ATGCACTA — lower, -0.0386
- AGCGATAT — higher, 0.13
- GCCCTCCC — lower, -0.271
- CCAATTGA — higher, 0.0132
- CAAAATAC — higher, 0.0204
- ACTGTATA — higher, -0.00299
- CTAGCGTC — lower, -0.181
- AGTGATCG — lower, -0.0464
- ATGAACGG — higher, -0.0248
- GTATAGAA — higher, 0.0955
- CCATCAGA — higher, 0.00899
- ACCTCAAC — higher, 0.0405
- CCCTCAAG — lower, -0.172
- AGGATCAC — higher, 0.067
- CTCGGTGA — lower, -0.169
- CTGACGTA — lower, -0.105
- ACCAAACA — higher, 0.113
- CACCACAG — higher, 0.0027
- CCCTGACC — higher, 0.3
- CGACTCTA — higher, -0.0195
- CCTACAAG — lower, -0.187
- GAGAGATA — higher, 0.0968
- ATGATAGA — higher, -0.0326
- ACAGCCCC — higher, -0.0265
- CTCCCGAC — lower, -0.203
- AAGGCTTC — lower, -0.122
- GCGCAGAC — higher, 0.0533
- CCTTTCAA — higher, 0.0566
- CCAGAAGA — lower, -0.0496
- ACGCGATG — higher, -0.00691
- CGGTTCAG — lower, -0.34
- CAGAAATG — higher, -0.0173
- GGGTGAGA — lower, -0.211
- AAGTCGCG — higher, -0.0145
- AACGAGCG — higher, 0.0427
- GATGCTCA — lower, -0.12
- AATCTGGC — lower, -0.214
- ATTCTGCG — higher, 0.193
